Assay [1] has as its target SssP1-NR_(1225-2214) (Streptococcus suis strain CZ130302). The assay is described as follows: affinity purification with mass spectrometry; His pull-down (Pierce kit): 500 ug His protein on Ni beads, 1 mg HBMEC cell total protein, shaking overnight at 4°C; beads alone as blank control; Q Exactive mass spectrometer; only the target purified.
In assay [2] the target is SssP1-NR_(1-1298) (Streptococcus suis strain CZ130302). Described as above.

Results are given in words; binding and its absence hold for the method and conditions named. In cells and extracts the contact can be indirect. These calls come from enrichment with a bait or labelling near it, and not all partners need be listed.

B1: Keratin, type I cytoskeletal 9 (protein, UniProt P35527 1-623)
chain: MSCRQFSSSYLSRSGGGGGGGLGSGGSIRSSYSRFSSSGGGGGGGRFSSSSGYGGGSSRVCGRGGGGSFGYSYGGGSGGGFSASSLGGGFGGGSRGFGGASGGGYSSSGGFGGGFGGGSGGGFGGGYGSGFGGFGGFGGGAGGGDGGILTANEKSTMQELNSRLASYLDKVQALEEANNDLENKIQDWYDKKGPAAIQKNYSPYYNTIDDLKDQIVDLTVGNNKTLLDIDNTRMTLDDFRIKFEMEQNLRQGVDADINGLRQVLDNLTMEKSDLEMQYETLQEELMALKKNHKEEMSQLTGQNSGDVNVEINVAPGKDLTKTLNDMRQEYEQLIAKNRKDIENQYETQITQIEHEVSSSGQEVQSSAKEVTQLRHGVQELEIELQSQLSKKAALEKSLEDTKNRYCGQLQMIQEQISNLEAQITDVRQEIECQNQEYSLLLSIKMRLEKEIETYHNLLEGGQEDFESSGAGKIGLGGRGGSGGSYGRGSRGGSGGSYGGGGSGGGYGGGSGSRGGSGGSYGGGSGSGGGSGGGYGGGSGGGHSGGSGGGHSGGSGGNYGGGSGSGGGSGGGYGGGSGSRGGSGGSHGGGSGFGGESGGSYGGGEEASGSGGGYGGGSGKSSHS
Turning to B1, the binding entry in assay [1] and in assay [2] was “binds” in each case.
